Data published in paper doi:10.1101/2025.10.29.685266.
No constants are given. Whether binding was seen depends on the method and setting. Binding seen in cells or lysates may run through a third protein. These calls come from enrichment with a bait or labelling near it, and not all partners need be listed.

Amino acid sequences for entries named in this document (tags omitted). A change or cut given only in a name is not applied to a line headed by its entry. Chains listed by the source or under a name are the forms on record and can include a tag or linker.
GFP-TET3 (eGFP - TEV cleavage site - murine Tet3) (Q8BG87, form named): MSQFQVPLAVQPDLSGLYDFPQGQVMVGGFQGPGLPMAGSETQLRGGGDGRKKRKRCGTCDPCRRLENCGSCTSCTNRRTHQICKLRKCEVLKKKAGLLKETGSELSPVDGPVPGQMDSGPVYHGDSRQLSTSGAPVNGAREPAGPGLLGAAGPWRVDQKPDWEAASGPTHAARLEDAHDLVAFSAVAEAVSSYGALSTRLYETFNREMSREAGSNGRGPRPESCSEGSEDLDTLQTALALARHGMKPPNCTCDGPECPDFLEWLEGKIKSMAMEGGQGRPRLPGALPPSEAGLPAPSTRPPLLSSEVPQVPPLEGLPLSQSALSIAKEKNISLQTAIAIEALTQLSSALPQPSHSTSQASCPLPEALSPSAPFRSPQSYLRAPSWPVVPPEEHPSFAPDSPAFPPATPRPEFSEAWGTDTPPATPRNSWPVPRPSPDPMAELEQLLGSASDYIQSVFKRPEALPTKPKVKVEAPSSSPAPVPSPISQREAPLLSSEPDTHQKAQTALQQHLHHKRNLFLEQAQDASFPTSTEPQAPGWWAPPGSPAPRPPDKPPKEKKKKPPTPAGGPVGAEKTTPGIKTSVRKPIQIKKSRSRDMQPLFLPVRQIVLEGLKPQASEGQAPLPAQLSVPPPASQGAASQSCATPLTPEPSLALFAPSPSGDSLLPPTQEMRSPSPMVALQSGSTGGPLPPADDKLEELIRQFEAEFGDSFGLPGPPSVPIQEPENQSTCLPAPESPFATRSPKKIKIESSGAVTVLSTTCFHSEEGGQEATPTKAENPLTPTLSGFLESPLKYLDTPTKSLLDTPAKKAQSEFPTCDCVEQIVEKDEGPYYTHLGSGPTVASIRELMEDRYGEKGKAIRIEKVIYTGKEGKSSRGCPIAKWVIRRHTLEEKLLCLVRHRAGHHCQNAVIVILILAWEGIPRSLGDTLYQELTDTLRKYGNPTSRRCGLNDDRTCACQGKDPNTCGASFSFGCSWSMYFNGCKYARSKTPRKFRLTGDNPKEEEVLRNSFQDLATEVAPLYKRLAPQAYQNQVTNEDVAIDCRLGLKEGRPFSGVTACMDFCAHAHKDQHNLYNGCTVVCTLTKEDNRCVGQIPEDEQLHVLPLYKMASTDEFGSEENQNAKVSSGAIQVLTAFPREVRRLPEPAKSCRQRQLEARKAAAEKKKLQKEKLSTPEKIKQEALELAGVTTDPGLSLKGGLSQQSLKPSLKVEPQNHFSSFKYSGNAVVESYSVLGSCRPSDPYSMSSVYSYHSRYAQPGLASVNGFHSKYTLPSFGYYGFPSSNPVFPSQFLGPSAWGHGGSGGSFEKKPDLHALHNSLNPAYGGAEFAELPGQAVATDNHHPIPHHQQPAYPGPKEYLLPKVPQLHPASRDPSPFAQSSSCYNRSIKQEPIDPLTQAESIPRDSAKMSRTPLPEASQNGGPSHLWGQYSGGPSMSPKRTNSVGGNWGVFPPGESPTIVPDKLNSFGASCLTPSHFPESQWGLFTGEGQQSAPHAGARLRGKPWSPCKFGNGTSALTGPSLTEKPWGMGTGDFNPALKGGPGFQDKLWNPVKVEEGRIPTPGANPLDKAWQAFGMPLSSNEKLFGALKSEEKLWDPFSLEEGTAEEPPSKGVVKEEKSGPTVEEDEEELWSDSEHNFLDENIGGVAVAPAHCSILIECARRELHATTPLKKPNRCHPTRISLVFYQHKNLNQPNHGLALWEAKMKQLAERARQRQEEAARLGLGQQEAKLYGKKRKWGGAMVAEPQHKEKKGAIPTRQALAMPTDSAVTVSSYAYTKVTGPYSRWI
UniProt P45973: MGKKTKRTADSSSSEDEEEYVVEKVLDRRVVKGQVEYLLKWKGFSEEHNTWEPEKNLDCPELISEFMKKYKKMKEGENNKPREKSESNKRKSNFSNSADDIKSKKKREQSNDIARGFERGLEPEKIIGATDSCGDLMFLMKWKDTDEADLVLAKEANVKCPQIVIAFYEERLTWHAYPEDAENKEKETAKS
UniProt Q13185: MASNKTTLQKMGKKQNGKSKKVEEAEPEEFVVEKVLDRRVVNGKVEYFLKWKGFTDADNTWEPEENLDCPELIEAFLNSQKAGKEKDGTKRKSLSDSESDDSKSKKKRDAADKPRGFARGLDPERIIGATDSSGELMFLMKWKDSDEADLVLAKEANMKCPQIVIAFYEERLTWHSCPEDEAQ
UniProt Q01844: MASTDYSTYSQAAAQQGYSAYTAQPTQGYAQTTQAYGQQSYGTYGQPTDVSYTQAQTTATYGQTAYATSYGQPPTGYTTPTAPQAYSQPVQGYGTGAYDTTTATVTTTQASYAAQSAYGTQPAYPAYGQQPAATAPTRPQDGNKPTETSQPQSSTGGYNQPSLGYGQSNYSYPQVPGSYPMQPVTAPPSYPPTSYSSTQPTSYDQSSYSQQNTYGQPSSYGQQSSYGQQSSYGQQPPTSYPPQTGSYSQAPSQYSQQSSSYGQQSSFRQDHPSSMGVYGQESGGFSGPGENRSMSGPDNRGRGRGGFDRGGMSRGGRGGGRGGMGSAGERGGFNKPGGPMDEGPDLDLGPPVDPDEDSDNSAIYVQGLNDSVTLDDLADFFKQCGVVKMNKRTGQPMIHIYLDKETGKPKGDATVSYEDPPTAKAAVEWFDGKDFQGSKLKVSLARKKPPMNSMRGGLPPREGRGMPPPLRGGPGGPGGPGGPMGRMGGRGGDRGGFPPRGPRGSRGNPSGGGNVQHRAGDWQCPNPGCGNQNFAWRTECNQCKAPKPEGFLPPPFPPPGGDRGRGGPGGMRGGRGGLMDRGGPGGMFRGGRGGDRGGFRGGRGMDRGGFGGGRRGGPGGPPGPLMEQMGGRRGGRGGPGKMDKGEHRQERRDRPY
UniProt P35637: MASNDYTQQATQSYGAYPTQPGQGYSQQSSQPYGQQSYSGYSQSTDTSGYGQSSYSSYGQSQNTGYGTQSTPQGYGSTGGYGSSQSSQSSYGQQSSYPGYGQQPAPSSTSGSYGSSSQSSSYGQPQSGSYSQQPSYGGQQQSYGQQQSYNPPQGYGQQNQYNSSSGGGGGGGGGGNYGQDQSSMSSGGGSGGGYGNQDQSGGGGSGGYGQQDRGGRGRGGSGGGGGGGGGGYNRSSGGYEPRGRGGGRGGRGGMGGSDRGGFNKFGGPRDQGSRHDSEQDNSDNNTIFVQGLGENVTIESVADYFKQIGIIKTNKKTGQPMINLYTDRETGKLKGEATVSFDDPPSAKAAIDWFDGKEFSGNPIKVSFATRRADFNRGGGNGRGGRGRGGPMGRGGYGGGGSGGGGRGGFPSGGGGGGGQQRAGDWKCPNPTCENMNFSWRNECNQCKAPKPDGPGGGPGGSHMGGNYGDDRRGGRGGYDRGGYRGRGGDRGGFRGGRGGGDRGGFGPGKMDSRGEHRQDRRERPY
UniProt P83916: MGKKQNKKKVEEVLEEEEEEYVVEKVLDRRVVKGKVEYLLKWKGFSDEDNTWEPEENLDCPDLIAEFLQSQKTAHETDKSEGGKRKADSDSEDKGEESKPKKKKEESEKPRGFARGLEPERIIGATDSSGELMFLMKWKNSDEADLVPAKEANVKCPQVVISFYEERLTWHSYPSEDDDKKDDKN
UniProt P09429: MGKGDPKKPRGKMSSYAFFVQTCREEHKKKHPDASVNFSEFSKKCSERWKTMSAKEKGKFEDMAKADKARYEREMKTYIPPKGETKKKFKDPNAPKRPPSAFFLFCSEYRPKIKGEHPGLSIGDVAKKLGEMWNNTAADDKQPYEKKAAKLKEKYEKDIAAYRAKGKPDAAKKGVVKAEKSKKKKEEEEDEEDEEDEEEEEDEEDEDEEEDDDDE

B1: high mobility group box protein HMGB3 (protein, UniProt O15347 1-200)
chain: MAKGDPKKPKGKMSAYAFFVQTCREEHKKKNPEVPVNFAEFSKKCSERWKTMSGKEKSKFDEMAKADKVRYDREMKDYGPAKGGKKKKDPNAPKRPPSGFFLFCSEFRPKIKSTNPGISIGDVAKKLGEMWNNLNDSEKQPYITKAAKLKEKYEKDVADYKSKGKFDGAKGPAKVARKKVEEEDEEEEEEEEEEEEEEDE
B2: high mobility group box protein HMGB2 (protein, UniProt P26583 1-209)
chain: MGKGDPNKPRGKMSSYAFFVQTCREEHKKKHPDSSVNFAEFSKKCSERWKTMSAKEKSKFEDMAKSDKARYDREMKNYVPPKGDKKGKKKDPNAPKRPPSAFFLFCSEHRPKIKSEHPGLSIGDTAKKLGEMWSEQSAKDKQPYEQKAAKLKEKYEKDIAAYRAKGKSEAGKKGPGRPTGSKKKNEPEDEEEEEEEEDEDEEEEDEDEE

target: GFP-TET3 (eGFP - TEV cleavage site - murine Tet3) (mouse) (UniProt Q8BG87); test: affinity purification with mass spectrometry

binding, binds:
chromobox protein CBX5 (from UniProt P45973 1-191), chromobox protein CBX3 (from UniProt Q13185 1-183), EWS (from UniProt Q01844 1-656), FUS (from UniProt P35637 1-526), chromobox protein CBX1 (from UniProt P83916 1-185), high mobility group box protein HMGB1 (from UniProt P09429 1-215), B1, B2
